According to patent publication US20090136495A1 (Eli Lilly, published 2009):
These are yes or no findings as the source states them, for the method shown. Some entries that bind do so weakly or less than the wild type.

T1: cynomolgus monkey hepcidin-25 (cynomolgus monkey, UniProt A7XEI3 60-84, not fully specified)
T1 construct: mature; also called mature cynomolgous monkey hepcidin
T1 peptide: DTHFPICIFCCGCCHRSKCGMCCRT


Target: T1, cynomolgus monkey hepcidin-25
Assay: SPR (BIAcore), 25 C

Row | Binder | binding
1 | Mab 3.23 (antibody, human IgG4 S228P, kappa, V domains shown) VH: QVQLVQSGAEVKKPGSSVKVSCKASGYTFLIYPISWVRQAPGQGLEWMGNFHPYLGVTNYVEKFKGRVTITADKSTSTAYMELSSLRSEDTAVYYCARGGTGSFDYWGQGTTVTVSS VL: DIQMTQSPSSLSASVGDRVTITCSASSRVSSTYLFWYQQKPGKAPKLLIYRTSPLASGVPSRFSGSGSGTDFTLTISSLQPEDFATYYCQQWSGYPFVFGGGTKVEIKR | binds
2 | Mab Hu22 (antibody, human IgG4 S228P, kappa, V domains shown) VH: QVQLVQSGAEVKKPGSSVKVSCKASGYTFTIYPISWVRQAPGQGLEWMGNFHPYLGDTNYNEKFKGRVTITADKSTSTAYMELSSLRSEDTAVYYCARGGTGSFDYWGQGTTVTVSS VL: DIQMTQSPSSLSASVGDRVTITCSASSRVSSTYLFWYQQKPGKAPKLLIYRTSTLASGVPSRFSGSGSGTDFTLTISSLQPEDFATYYCQQWSGYPFTFGGGTKVEIKR | binds
